In patent EP0573360A1, “Pyrrolothienopyrazine compounds as 5-HT3 receptors antagonists” (ADIR ET COMPAGNIE, priority 1992, dated 1993):
Some entries share one result that the patent states for a list of compounds.

Biological target: T1, récepteurs 5-HT₃ (Mus musculus, UniProt P23979)
T1 sequence (P23979 24-489): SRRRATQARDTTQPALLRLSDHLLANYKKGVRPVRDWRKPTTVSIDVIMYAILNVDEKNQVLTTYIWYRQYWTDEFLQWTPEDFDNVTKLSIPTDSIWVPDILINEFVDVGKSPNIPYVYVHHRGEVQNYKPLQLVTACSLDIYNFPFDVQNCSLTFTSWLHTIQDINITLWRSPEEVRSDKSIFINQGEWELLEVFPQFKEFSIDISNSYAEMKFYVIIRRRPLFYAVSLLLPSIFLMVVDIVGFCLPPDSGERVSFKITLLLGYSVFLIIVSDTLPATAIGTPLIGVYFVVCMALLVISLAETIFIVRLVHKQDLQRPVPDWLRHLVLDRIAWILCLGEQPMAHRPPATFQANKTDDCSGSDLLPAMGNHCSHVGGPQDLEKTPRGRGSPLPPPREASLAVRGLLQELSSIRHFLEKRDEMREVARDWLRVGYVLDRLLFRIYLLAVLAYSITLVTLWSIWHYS
Test: 14C-guanidinium accumulation in NG 108-15 cells
Settings: 10-100 nM of selective 5-HT3 antagonist

## Cc1nccn1CC1CCc2c(c3ccccc3n2C)C1=O (stereo not shown) [ondansetron]
  suppression of the agonist-stimulated accumulation de 14C-guanidinium: complétement supprimé
